Article PMC8979962
No constants are given. Whether binding was seen depends on the method and setting. In cells and extracts the contact can be indirect. Some results given as binding are weak or reduced against the parent protein; the word gives no strength. For some assays here: Sequences can lack the tags named with a protein. Blank lines part the entries; values can stand above or below the binder they belong to.

How the values were obtained:
[1] = molecular target: MCM7 (human (endogenous in NPCs)), P33993; experiment: co-IP; IP analysis in NPCs transfected with increasing concentrations of the circKIF18A lentivirus; which protein was precipitated is not told; conditions: remark: other sources report otherwise
[2] = molecular target: Myc-MCM7, P33993; experiment: co-IP; IP analysis in HEK-293T cells transfected with plasmids encoding circKIF18A, Myc-MCM7 or HA-UBE3A; which protein was precipitated is not told; conditions: remark: other sources report otherwise

- binding [1]: binds
B1: ubiquitin ligase E3A (UBE3A), Q05086 1-875 (enzyme)
chain: MEKLHQCYWKSGEPQSDDIEASRMKRAAAKHLIERYYHQLTEGCGNEACTNEFCASCPTFLRMDNNAAAIKALELYKINAKLCDPHPSKKGASSAYLENSKGAPNNSCSEIKMNKKGARIDFKDVTYLTEEKVYEILELCREREDYSPLIRVIGRVFSSAEALVQSFRKVKQHTKEELKSLQAKDEDKDEDEKEKAACSAAAMEEDSEASSSRIGDSSQGDNNLQKLGPDDVSVDIDAIRRVYTRLLSNEKIETAFLNALVYLSPNVECDLTYHNVYSRDPNYLNLFIIVMENRNLHSPEYLEMALPLFCKAMSKLPLAAQGKLIRLWSKYNADQIRRMMETFQQLITYKVISNEFNSRNLVNDDDAIVAASKCLKMVYYANVVGGEVDTNHNEEDDEEPIPESSELTLQELLGEERRNKKGPRVDPLETELGVKTLDCRKPLIPFEEFINEPLNEVLEMDKDYTFFKVETENKFSFMTCPFILNAVTKNLGLYYDNRIRMYSERRITVLYSLVQGQQLNPYLRLKVRRDHIIDDALVRLEMIAMENPADLKKQLYVEFEGEQGVDEGGVSKEFFQLVVEEIFNPDIGMFTYDESTKLFWFNPSSFETEGQFTLIGIVLGLAIYNNCILDVHFPMVVYRKLMGKKGTFRDLGDSHPVLYQSLKDLLEYEGNVEDDMMITFQISQTDLFGNPMMYDLKENGDKIPITNENRKEFVNLYSDYILNKSVEKQFKAFRRGFHMVTNESPLKYLFRPEEIELLICGSRNLDFQALEETTEYDGGYTRDSVLIREFWEIVHSFTDEQKRLFLQFTTGTDRAPVGGLGKLKMIIAKNGPDTERLPTSHTCFNVLLLPEYSSKEKLKERLLKAITYAKGFGML

- binding [2]: binds
B2: HA-UBE3A, Q05086 1-875 (enzyme)
chain: B1 chain
